Where “and” joins values, the source holds several entries; their conditions need not be identical. Equal values may be shown once. Among all 350,000 compounds or so, about 6,000 (1.7%) were called active. The shares of active, inactive and inconclusive entries below differ from those in the screen. Cut-off read from the data, not from the text of the source: active = CPE inhibition above about 20% (passing the limit was not always enough); inconclusive = no clear call, values can overlap the other calls; tested in BHK-21 cells.
Experiment: protection of cells from dengue 2 killing – plate reader, single concentration, primary screen (AID 651640);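 note: 0% = median of neutral control wells and 100% = median of positive control wells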
Settings: DENV2-infected cells, cytopathic effect rescue, at 9.99 µM, stronger effect = higher value
For `O=C(Cc1ccccn1)N[C@H]1CC[C@H](CCn2cc(-c3ccccc3)nn2)O[C@@H]1CO`, the CPE inhibition was inactive: -5.05%.
For `COCC(=O)Nc1ccc2c(c1)[C@@H]1C[C@H](CC(=O)N3CCN(C)CC3)O[C@H](CO)[C@@H]1O2`, the CPE inhibition was inconclusive: 28.7%.
With `C[C@@H]1CCCCO[C@@H](CN(C)Cc2ccncc2)[C@H](C)CN([C@@H](C)CO)C(=O)c2cc(NC(=O)c3ccccc3)ccc2O1` the CPE inhibition was inconclusive: 66.1%.
With `NC(=O)C1CCN(C(=O)CC2(CC(=O)O)CCCCC2)CC1` the CPE inhibition was inactive: -0.265%.
In the case of `CCOC(=O)N1CCN(C(=O)c2cccc(S(=O)(=O)Nc3ccc(Br)cc3)c2)CC1`, the CPE inhibition is reported as inconclusive: 21.6%.
For `Cc1noc(C)c1NC(=O)N(C)C[C@@H]1Oc2ccc(NS(=O)(=O)c3cccs3)cc2C(=O)N([C@@H](C)CO)C[C@H]1C`, the CPE inhibition was active: 37.6%.
For `CCC(=O)Nc1ccc2c(c1)OC[C@H](C)N(C(=O)CC1CC1)C[C@@H](C)[C@@H](OC)CN(C)C2=O`, the CPE inhibition was inactive: -9.47%.
For `Cc1ccc(S(=O)(=O)Nc2ccc(C(=O)NCCCn3ccnc3)cc2)cc1[N+](=O)[O-]`, the CPE inhibition was inactive: 4.64%.
With `Cn1cnc(S(=O)(=O)N[C@H]2CC[C@H](CC(=O)NCC3CCCCC3)O[C@H]2CO)c1` the CPE inhibition was active: 79.6%.
With `Cc1ccc2c(c1)NC(=O)C(CC(=O)NCCCN1CCN(c3cc(Cl)ccc3C)CC1)O2` (stereo not given) the CPE inhibition was inconclusive: 28.3%.
For `CCCNC(=O)[C@H]1[C@H](CO)[C@H]2Cn3c(ccc(C4=CCCC4)c3=O)[C@H]2N1CCC`, the CPE inhibition was inactive: -0.942%.
With `COCCCNC(=O)[C@@]1(Cc2ccccc2N=[N+]=[N-])N=C(c2ccc(OCCCO)cc2)O[C@H]1c1ccccc1N=[N+]=[N-]` the CPE inhibition was inactive: -2.04%.
In the case of `COc1cccc(C#Cc2ccc([C@H]3[C@H](CO)N4C(=O)CN(C(=O)Cc5cccnc5)C[C@@H]34)cc2)c1`, the CPE inhibition is reported as inactive: -2.77%.
In the case of `OC[C@H]1[C@@H](c2ccc(-c3cccnc3)cc2)[C@H]2CN(Cc3ccccn3)CCCCN21`, the CPE inhibition is reported as inconclusive: 38.6%.
With `C/C(Cn1ncc(N2CCOCC2)c(Cl)c1=O)=N\O` the CPE inhibition was active: 28.6%.
With `C[C@@H]1CN([C@H](C)CO)C(=O)c2cc(C#CC3CCCC3)cnc2O[C@H]1CN(C)S(=O)(=O)c1cccc(F)c1` the CPE inhibition was inconclusive: 25.7%.
In the case of `O=C(O)CCC(=O)N1CCN(S(=O)(=O)c2cccs2)CC1`, the CPE inhibition is reported as inconclusive: 29.5%.
With `CC1CCCCN1CCNC(=O)c1cc2c(-c3ccccc3F)nn(C)c2s1` (stereo not given) the CPE inhibition was inconclusive: 42.7%.
With `O=C(C[C@@H]1C[C@H]2c3cc(NC(=O)C4CCC4)ccc3O[C@H]2[C@H](CO)O1)NCCN1CCCCC1` the CPE inhibition was active: 26.3%.
With `Cc1ccccc1NC(=O)CN(C)S(=O)(=O)c1cccc2cccnc12` the CPE inhibition was inconclusive: 69.7%.
For `C[C@@H]1CN([C@@H](C)CO)C(=O)c2cc(C3=CCCC3)cnc2O[C@H]1CN(C)Cc1ccccn1`, the CPE inhibition was inactive: 3.18%.
In the case of `COc1ccccc1-c1ccc2n(c1=O)C[C@H]1[C@H](CO)[C@@H](C(=O)NCc3ccccc3Cl)N[C@@H]21`, the CPE inhibition is reported as inactive: 13.3%.
With `COc1ccc(CNC(=O)COc2ccc(S(=O)(=O)N3CCOCC3)cc2)cc1` the CPE inhibition was inactive: -7.05%.
With `CC(=O)Nc1ccc2c(c1)C(=O)N(C)[C@H]1CC[C@H](CC(=O)Nc3ccc(Cl)cc3)O[C@@H]1CO2` the CPE inhibition was inconclusive: 80.4%.
With `CCN(CC)C(=O)c1sc2c(c1C)c(=O)n(-c1ccc(C)c(C)c1)c(=O)n2CC(=O)NCC1CCCO1` (stereo not given) the CPE inhibition was inconclusive: 25.7%.
With `COc1ccc2c3c([nH]c2c1)[C@H](CO)N(C)CC31CN(S(=O)(=O)c2ccc(C)cc2)C1` the CPE inhibition was inactive: 0.695%.
For `CCC(=O)N1[C@H](CN(C)C(C)=O)[C@@H](c2ccc(-c3ccc(F)cc3)cc2)[C@@H]1CO`, the CPE inhibition was inconclusive: 34.8%.
For `C[C@@H](NC(=O)[C@@H]1CCCN1C(=O)[C@@H]1CCCN1C(=O)c1cccs1)c1ccccc1`, the CPE inhibition was inconclusive: 27.5%.
In the case of `COc1ccc(S(=O)(=O)N(C)C[C@H]2OCCCC[C@H](C)Oc3ccc(NC(=O)c4ccccc4)cc3C(=O)N([C@H](C)CO)C[C@H]2C)cc1`, the CPE inhibition is reported as inactive: 7.6%.
For `CCOC(=O)N1CCN(C(=O)CCc2ccc(S(=O)(=O)NC(C)(C)C)cc2)CC1`, the CPE inhibition was inconclusive: 39.6%.
For `COc1ccc2c3c([nH]c2c1)[C@H](CO)N(C(C)=O)CC31CCN(Cc2cc(-c3ccccc3)on2)CC1`, the CPE inhibition was inconclusive: 23.6%.
For `O=C(CN1C(=O)CSc2ccc(S(=O)(=O)N3CCCCC3)cc21)NCc1ccccc1Cl`, the CPE inhibition was inconclusive: 20.2%.
With `O=C(NC(c1ccc(Cl)cc1)c1cnccn1)C1CCN(Cc2ccc(Oc3ccccc3)cc2)CC1` (stereo not given) the CPE inhibition was active: 84.3%.
With `COc1ccccc1N=CC1=C(O)CC(c2ccccc2)CC1=O` (stereo not given) the CPE inhibition was inactive: 0.98%.
With `C[C@@H]1CCCCO[C@H](CN(C)C(=O)C2CCCCC2)[C@@H](C)CN([C@H](C)CO)C(=O)c2cc(NC(=O)Nc3ccc4c(c3)OCO4)ccc2O1` the CPE inhibition was inconclusive: 21.1%.
In the case of `CCCC(=O)Nc1ccc2c(c1)OC[C@H](C)N(Cc1ccccc1F)C[C@H](C)[C@@H](OC)CN(C)C2=O`, the CPE inhibition is reported as active: 21.1%.
With `Cc1noc(C)c1NC(=O)Nc1cccc2c1O[C@H](CN(C)Cc1ccc(-c3ccccc3)cc1)[C@H](C)CN([C@@H](C)CO)C2=O` the CPE inhibition was inconclusive: 49.2%.
For `COc1ccccc1-c1cn(CC[C@@H]2CC[C@H](NC(=O)Cc3ccccn3)[C@@H](CO)O2)nn1`, the CPE inhibition was inactive: -4.61%.
For `COc1cccc(S(=O)(=O)Nc2ccc3c(c2)[C@H]2C[C@H](CC(=O)NCc4cccc(F)c4)O[C@H](CO)[C@H]2O3)c1`, the CPE inhibition was inactive: -7.82%.
For `O=C1C=C(NC2=CC3OC(c4ccccc4)OCC3OC2=O)CCC1` (stereo not given), the CPE inhibition was inconclusive: 20.7%.
For `Cc1ccc(S(=O)(=O)NCCSc2nncn2C)cc1`, the CPE inhibition was inconclusive: 22.3%.
For `CC(=O)c1cc2c(ccc3ccccc32)oc1=O`, the CPE inhibition was inconclusive: 35.3%.
In the case of `CN1CCN(S(=O)(=O)c2ccc(Cl)cc2)CC1`, the CPE inhibition is reported as inconclusive: 55.2%.
In the case of `Nc1ccc2cc3ccccc3cc2c1`, the CPE inhibition is reported as inactive: -14%.
In the case of `C[C@@H]1CN([C@@H](C)CO)C(=O)c2cccc(NC(=O)C3CCCCC3)c2O[C@H]1CN(C)Cc1ccc2c(c1)OCO2`, the CPE inhibition is reported as active: 20.8%.
In the case of `C[C@H]1CN([C@@H](C)CO)C(=O)Cc2cc(NC(=O)CCCCCC(=O)Nc3ccccc3N)ccc2O[C@H]1CN(C)Cc1ccc(Oc2ccccc2)cc1`, the CPE inhibition is reported as inconclusive: 37.3%.
In the case of `Cc1ccc(NC(=O)Cn2c(=O)c3cccn3c3ccccc32)c(C)c1`, the CPE inhibition is reported as inconclusive: 26.4%.
In the case of `Cc1ccc(NC(=O)C2CCN(S(=O)(=O)c3c(C)[nH]c(=O)[nH]c3=O)CC2)cc1`, the CPE inhibition is reported as inconclusive: 68%.
For `C[C@H](NC(=O)[C@H]1N2C(=O)c3ccccc3C2SC1(C)C)C(=O)N1CCC[C@H]1CO` (stereo not given in full), the CPE inhibition was inconclusive: 24.6%.
In the case of `COc1ccc(NC(=O)CCNS(=O)(=O)c2ccccc2F)cc1S(=O)(=O)N1CCOCC1`, the CPE inhibition is reported as inconclusive: 31.6%.
With `Cc1ccc(S(=O)(=O)N2CCCCC2)cc1NC(=O)c1c(-c2ccccc2)noc1C` the CPE inhibition was inactive: -4.52%.
With `CCOC(=O)N1CCN(C(=O)C2CCCN(S(=O)(=O)c3ccc(F)cc3)C2)CC1` (stereo not given) the CPE inhibition was inactive: 2.41%.
With `O=C1CN(C(=O)COc2cccc(F)c2)c2ccccc2N1` the CPE inhibition was inactive: 15.5%.
With `C[C@@H]1CN([C@@H](C)CO)C(=O)CCCn2nncc2CO[C@H]1CN(C)C(=O)C1CCCCC1` the CPE inhibition was inactive: 6.66% and inactive: 0.432% and inconclusive: 34.3%.
In the case of `O=C(CSc1nc2ccccc2s1)NNC(=S)Nc1ccc(Cl)cc1`, the CPE inhibition is reported as inconclusive: 38.2%.
In the case of `Cc1cc(=O)[nH]c(SCC(=O)Nc2c(C)n(C)n(-c3ccccc3)c2=O)n1`, the CPE inhibition is reported as inconclusive: 43.1%.
In the case of `OCC[C@H]1C[C@@H](O)[C@H](O)[C@@]2(CCc3ccccc3CO2)O1`, the CPE inhibition is reported as active: 48%.
For `CSC1=NCCN1C(=O)COc1ccc2ccccc2c1`, the CPE inhibition was inconclusive: 21.8%.
For `O=C(Nc1ccc(OCC(=O)N2CCOCC2)cc1)c1cc(F)c(F)cc1Cl`, the CPE inhibition was inconclusive: 32.9%.
With `CC(=O)NS(=O)(=O)c1ccc(N2C(=O)c3ccccc3C2=O)cc1` the CPE inhibition was inactive: 0.985%.
For `CN(C)C(=O)c1cccc(-c2ccc(C3[C@H]4CNC[C@@H]3N4C(=O)Nc3cc(F)ccc3F)cc2)c1` (stereo not given in full), the CPE inhibition was inactive: -1.47% and inactive: 1.39%.
For `C[C@@H]1CCCCO[C@H](CN(C)C(=O)CCC(F)(F)F)[C@H](C)CN([C@H](C)CO)C(=O)c2cc(NC(=O)C3CCCCC3)ccc2O1`, the CPE inhibition was inconclusive: 22.5%.
For `C[C@@H]1CN([C@@H](C)CO)C(=O)c2cc(NS(=O)(=O)c3cccs3)ccc2O[C@H]1CN(C)C(=O)Nc1ccc(F)cc1`, the CPE inhibition was inactive: -4.69%.
For `CC1=CS/C(=C(/C#N)C(=O)NCc2ccco2)N1c1ccccc1`, the CPE inhibition was inconclusive: 62.3%.
In the case of `NC(=S)NN=C(c1ccc(F)cc1)C1CC1`, the CPE inhibition is reported as inconclusive: 68.6%.
In the case of `COc1cccc(-c2cc(C(=O)Nc3ccn(Cc4ccc(C)cc4)n3)no2)c1`, the CPE inhibition is reported as inactive: 1.19%.
In the case of `CC(=O)Nc1cccc(OCCCNC(=O)C2CCC2)c1`, the CPE inhibition is reported as inconclusive: 38.5%.
For `C[C@@H]1CN([C@@H](C)CO)C(=O)c2cc(NC(=O)Nc3cccc4ccccc34)ccc2O[C@H]1CN(C)CC1CCCCC1`, the CPE inhibition was active: 34%.
In the case of `C[C@@H]1CN([C@H](C)CO)C(=O)c2cccc(NC(=O)Nc3ccc(C(F)(F)F)cc3)c2O[C@@H]1CN(C)S(=O)(=O)c1ccc(F)cc1`, the CPE inhibition is reported as inconclusive: 30.6%.
For `Cc1ccc(S(=O)(=O)Nc2ccc3c(c2)C(=O)N([C@H](C)CO)C[C@H](C)[C@@H](CN(C)S(=O)(=O)c2ccccc2)OCCCC[C@@H](C)O3)cc1`, the CPE inhibition was inconclusive: 43.7%.
